The list shows a part of the results. Values are raw readings; no control value is given beside them.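 Primary screen: polymyxin B was added at a level permeabilizing Salmonella outer membranes while sparing inner membranes. DMSO wells, both with and without polymyxin B, established maximum growth. Plate-to-plate variation meant each plate was ranked on its own, and the lowest-OD600 compounds were selected as hits.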
Tested on: Salmonella enterica serovar Typhimurium SL1344
Assay: bacterial growth OD600 after 18 h with compound and polymyxin B; higher = more bacterial growth (less inhibition)
Settings: 50 µM, Mueller-Hinton broth

SMILES | bacterial growth OD600 (polymyxin B 1 µg/mL) | bacterial growth OD600 (polymyxin B 0.75 µg/mL)
COc1ccc(-c2noc(CN(C)Cc3cccc4cnccc34)n2)c(OC)c1OC | 0.896 | –
COc1ccc(F)c(CN2CCCC(CCC(=O)N3CCOCC3)C2)c1 (stereo unspecified) | 0.922 | –
O=C1CCCCN1CCC(=O)N1CCCC(CCc2ccccc2F)C1 (stereo unspecified) | – | 0.95
CSc1nc(C(=O)N2CCc3onc(-c4ccc(Cl)cc4)c3C2)cs1 | – | 0.004
Cc1cccn2c(CNC(C)c3ccccc3Cl)c(C(=O)N3CCCCC3)nc12 (stereo unspecified) | – | 0.003
O=C(Nc1ccccc1Oc1cccnc1)C1CCCN(C2Cc3ccccc3C2)C1 (stereo unspecified) | 0.007 | –
CCc1csc(CNC(=O)c2ccc(N3CCCC3c3ccccn3)nc2)n1 (stereo unspecified) | – | 0.803
CO[C@H]1[C@H](NC(=O)c2ccccn2)c2ccccc2C12CCN(C(=O)c1ccc(CC(C)C)cc1)CC2 | – | 0.001
O=C(NCc1ccccc1OC(F)(F)F)C1CC(Cc2cccc(F)c2)=NO1 (stereo unspecified) | – | 0.647
CSc1ccc(CC2(CCC(=O)N3CCN(c4nc(C)cnc4C)CC3)CCC(=O)N2)cc1 (stereo unspecified) | – | 0.731
C=C(C)CNCC1(O)CCCN(Cc2cccc(F)c2F)C1=O (stereo unspecified) | 0.931 | –
CCc1cc(C(=O)N2CCCC(c3nc(C)ncc3-c3cccc(C)c3)C2)n(C)n1 (stereo unspecified) | – | 0.832
CC(C)N1CCN(c2nc3nonc3nc2NC2CCCC2)CC1 | 0.87 | –
CO[C@H]1[C@H](NC(=O)c2ccncc2)c2ccccc2C12CCN(C(=O)c1csc(C(C)=O)c1)CC2 | – | 0.867
CCc1nc2cc(C(=O)N(C)C3CCCCC3)cc(NC(=O)c3ccccc3OC)c2n1C | – | 0.834
CC(C)OCCCNC(=O)CC1C(=O)NCCN1Cc1cccc(F)c1F (stereo unspecified) | 0.847 | –

Two successive entries from above:
SMILES | bacterial growth OD600 (polymyxin B 1 µg/mL) | bacterial growth OD600 (polymyxin B 0.75 µg/mL)
COc1ccc(-c2noc(CN(C)Cc3cccc4cnccc34)n2)c(OC)c1OC | 0.896 | –
COc1ccc(F)c(CN2CCCC(CCC(=O)N3CCOCC3)C2)c1 (stereo unspecified) | 0.922 | –

(cont.)

SMILES | bacterial growth OD600 (polymyxin B 1 µg/mL) | bacterial growth OD600 (polymyxin B 0.75 µg/mL)
CC[C@H](C)[C@H](NC1CCN(c2ccc(CC(=O)N3CCC[C@H]3C(=O)OC)cc2)CC1)C(=O)OC | – | 0.753
O=C(c1ccc(N2CCCC(O)C2)nc1)N1CCC(CCn2cccn2)CC1 (stereo unspecified) | – | 0.791
C=CCNC(=O)Cc1c2c(n(Cc3ccccc3F)c1C)CCCC2=O | 0.73 | –
CCOC(=O)C1(CCc2ccccc2)CCN(C(=O)c2cc(C)nc(C)n2)CC1 | 0.906 | –
O=C(NCCc1ccncc1)c1ccc(OC2CCN(C(=O)C3CC3)CC2)cc1 | 1.05 | –
c1ccc(Oc2ncccc2CNCc2ccccn2)cc1 | 0.836 | –
CCN1CCN(C(=O)c2ccc(N3CCC(N4CCC(c5ccccc5)CC4)CC3)cc2)CC1 | – | 0.655
CC(C)c1noc(-c2ccc(NCC3CCCOC3)nc2)n1 (stereo unspecified) | – | 0.626
C=CCCC(=O)NC1CC(C)(C)Cc2c1cnn2-c1cccc(F)c1 (stereo unspecified) | 0.864 | –
CCCCn1c(CN2CCCN(C=O)CC2)cnc1S(=O)(=O)CCCC(C)C | – | 0.607
O=C(NCCN1Cc2ccccc2OC(c2ccccc2F)C1)C(c1cccnc1)N1CCOCC1 (stereo unspecified) | – | 0.805
Cc1ccc(S(=O)(=O)N2CCC(CCC(=O)N(C)Cc3ccccc3)CC2)s1 | 0.808 | –
COc1ccccc1C(=O)N1CCN(Cc2nc(-c3ccoc3)oc2C)CC1 | – | 0.789
CCCNC(=O)N1CCC2(CCCN(Cc3cc(OC)ccc3F)C2=O)C1 (stereo unspecified) | 0.894 | –
COCCN1CCCC(CNc2nc3nonc3nc2N2CCSCC2)C1 (stereo unspecified) | – | 0.809
